# PubChem BioAssay AID1259424 – University of Nebraska Medical Center | 2018
# Assay: 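Seek colon cancer survival genes behaving like KSR1, using a six-gene signature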 (primary screen)
# Cell system: human HCT116 colon cancer cells
# Reagent: siRNA pool against human genes, 50 nM
# Read-out: 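Six signature mRNAs by branched-DNA multiplex assay, scaled to two housekeeping genes and non-targeting median, log2; matched to mean KSR1 knockdown profile by Pearson correlation and euclidean distance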
# Scale: mean correlation with KSR1 profile and KSR1 correlation: higher = expression change more like KSR1 knockdown; mean distance from KSR1 profile: higher = expression change less like KSR1 knockdown
# The whole screen tested about 14,000 reagents; below is an unselected part. 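Higher correlation or smaller distance means closer resemblance to KSR1 loss; control wells, including KSR1 knockdowns, recur on many plates.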 Reagents against one gene are numbered here. Further read-outs or replicates are left out here. Not stated in the record: the time to read-out.
gene,reagent no.,mean correlation with KSR1 profile,mean distance from KSR1 profile,"KSR1 correlation, replicate 1"
IARS2,1,0.618,1.61,0.399
CALHM2,1,0.189,3.09,0.184
IFT140,1,0.254,1.58,0.17
KRCC1,1,0.703,2.16,0.495
MCC,1,-0.476,1.74,-0.445
LTB4R2,1,0.381,2.73,0.404
PRSS22,1,-0.234,1.6,0.125
GUSBP14,1,-0.44,4.72,-0.327
GUSBP14,2,-0.199,4.42,-0.163
TEX101,1,0.289,2.46,0.271
MADCAM1,1,0.312,3.36,0.312
NOM1,1,0.333,2.1,0.196
ICA1,1,-0.413,4.51,-0.408
RRAS,1,0.477,1.02,0.234
MARK4,1,0.175,1.36,0.765
ELL2,1,-0.19,1.64,-0.0753
SEC61A2,1,0.608,1.64,0.586
MC2R,1,0.905,1.52,0.866
MX2,1,0.283,1.71,0.187
FGF14,1,0.58,2.19,0.567
PIGX,1,0.0528,2.41,0.206
SYT15,1,0.845,2.74,0.711
BMP8B,1,0.314,2.42,0.372
POM121,1,-0.149,1.37,-0.11
PTGER1,1,0.954,2.42,0.969
P3H1,1,0.0689,2.64,0.162
WIZ,1,-0.26,1.4,-0.115
AGR2,1,-0.352,2.77,0.253
PBLD,1,-0.373,1.39,-0.589
KCNMA1,1,0.151,3.33,0.0701
SATB2,1,-0.718,2.54,-0.648
TOR3A,1,-0.674,2.73,-0.569
CDH20,1,0.186,2.33,0.177
GTF2A1,1,0.509,1.19,0.397
SPANXC,1,-0.198,1.57,-0.392
RGP1,1,0.851,1.8,0.836
SIX3,1,0.493,1.43,0.721
KRAS,1,0.502,2.34,0.611
LYPD3,1,0.0865,1.49,-0.232
NPAS2,1,-0.529,2.1,-0.648
SCT,1,0.23,1.49,0.0203
LRRC37A4P,1,-0.394,1.24,-0.487
CYP11B2,1,0.61,1.13,0.579
DNMT1,1,0.327,3.2,0.391
SNX6,1,-0.203,2.48,-0.133
PTPRN2,1,-0.293,1.64,-0.462
STRN4,1,0.302,2.31,0.231
KRT7,1,-0.596,2.88,-0.7
FBXL20,1,-0.335,3.14,-0.274
PMS2P2,1,-0.546,2.84,-0.33

A run of entries taken from the entries so far, as a working copy:
gene,reagent no.,mean correlation with KSR1 profile,mean distance from KSR1 profile,"KSR1 correlation, replicate 1"
LTB4R2,1,0.381,2.73,0.404
PRSS22,1,-0.234,1.6,0.125
GUSBP14,1,-0.44,4.72,-0.327
GUSBP14,2,-0.199,4.42,-0.163
TEX101,1,0.289,2.46,0.271
MADCAM1,1,0.312,3.36,0.312
